Measured values: publication PMC7567853
Results are given in words; binding and its absence hold for the method and conditions named. In cells and extracts the contact can be indirect. A yes stands for co-enrichment or nearness to the bait. Other partners may have been found.

Amino acid sequences for entries named in this document (tags omitted). A change or cut given only in a name is not applied to a line headed by its entry.
UniProt P70444: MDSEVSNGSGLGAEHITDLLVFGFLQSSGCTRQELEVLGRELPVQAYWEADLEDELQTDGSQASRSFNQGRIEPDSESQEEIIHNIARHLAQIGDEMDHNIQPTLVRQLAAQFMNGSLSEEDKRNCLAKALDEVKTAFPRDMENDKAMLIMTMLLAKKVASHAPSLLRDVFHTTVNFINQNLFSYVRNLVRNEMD
UniProt Q8IVF2: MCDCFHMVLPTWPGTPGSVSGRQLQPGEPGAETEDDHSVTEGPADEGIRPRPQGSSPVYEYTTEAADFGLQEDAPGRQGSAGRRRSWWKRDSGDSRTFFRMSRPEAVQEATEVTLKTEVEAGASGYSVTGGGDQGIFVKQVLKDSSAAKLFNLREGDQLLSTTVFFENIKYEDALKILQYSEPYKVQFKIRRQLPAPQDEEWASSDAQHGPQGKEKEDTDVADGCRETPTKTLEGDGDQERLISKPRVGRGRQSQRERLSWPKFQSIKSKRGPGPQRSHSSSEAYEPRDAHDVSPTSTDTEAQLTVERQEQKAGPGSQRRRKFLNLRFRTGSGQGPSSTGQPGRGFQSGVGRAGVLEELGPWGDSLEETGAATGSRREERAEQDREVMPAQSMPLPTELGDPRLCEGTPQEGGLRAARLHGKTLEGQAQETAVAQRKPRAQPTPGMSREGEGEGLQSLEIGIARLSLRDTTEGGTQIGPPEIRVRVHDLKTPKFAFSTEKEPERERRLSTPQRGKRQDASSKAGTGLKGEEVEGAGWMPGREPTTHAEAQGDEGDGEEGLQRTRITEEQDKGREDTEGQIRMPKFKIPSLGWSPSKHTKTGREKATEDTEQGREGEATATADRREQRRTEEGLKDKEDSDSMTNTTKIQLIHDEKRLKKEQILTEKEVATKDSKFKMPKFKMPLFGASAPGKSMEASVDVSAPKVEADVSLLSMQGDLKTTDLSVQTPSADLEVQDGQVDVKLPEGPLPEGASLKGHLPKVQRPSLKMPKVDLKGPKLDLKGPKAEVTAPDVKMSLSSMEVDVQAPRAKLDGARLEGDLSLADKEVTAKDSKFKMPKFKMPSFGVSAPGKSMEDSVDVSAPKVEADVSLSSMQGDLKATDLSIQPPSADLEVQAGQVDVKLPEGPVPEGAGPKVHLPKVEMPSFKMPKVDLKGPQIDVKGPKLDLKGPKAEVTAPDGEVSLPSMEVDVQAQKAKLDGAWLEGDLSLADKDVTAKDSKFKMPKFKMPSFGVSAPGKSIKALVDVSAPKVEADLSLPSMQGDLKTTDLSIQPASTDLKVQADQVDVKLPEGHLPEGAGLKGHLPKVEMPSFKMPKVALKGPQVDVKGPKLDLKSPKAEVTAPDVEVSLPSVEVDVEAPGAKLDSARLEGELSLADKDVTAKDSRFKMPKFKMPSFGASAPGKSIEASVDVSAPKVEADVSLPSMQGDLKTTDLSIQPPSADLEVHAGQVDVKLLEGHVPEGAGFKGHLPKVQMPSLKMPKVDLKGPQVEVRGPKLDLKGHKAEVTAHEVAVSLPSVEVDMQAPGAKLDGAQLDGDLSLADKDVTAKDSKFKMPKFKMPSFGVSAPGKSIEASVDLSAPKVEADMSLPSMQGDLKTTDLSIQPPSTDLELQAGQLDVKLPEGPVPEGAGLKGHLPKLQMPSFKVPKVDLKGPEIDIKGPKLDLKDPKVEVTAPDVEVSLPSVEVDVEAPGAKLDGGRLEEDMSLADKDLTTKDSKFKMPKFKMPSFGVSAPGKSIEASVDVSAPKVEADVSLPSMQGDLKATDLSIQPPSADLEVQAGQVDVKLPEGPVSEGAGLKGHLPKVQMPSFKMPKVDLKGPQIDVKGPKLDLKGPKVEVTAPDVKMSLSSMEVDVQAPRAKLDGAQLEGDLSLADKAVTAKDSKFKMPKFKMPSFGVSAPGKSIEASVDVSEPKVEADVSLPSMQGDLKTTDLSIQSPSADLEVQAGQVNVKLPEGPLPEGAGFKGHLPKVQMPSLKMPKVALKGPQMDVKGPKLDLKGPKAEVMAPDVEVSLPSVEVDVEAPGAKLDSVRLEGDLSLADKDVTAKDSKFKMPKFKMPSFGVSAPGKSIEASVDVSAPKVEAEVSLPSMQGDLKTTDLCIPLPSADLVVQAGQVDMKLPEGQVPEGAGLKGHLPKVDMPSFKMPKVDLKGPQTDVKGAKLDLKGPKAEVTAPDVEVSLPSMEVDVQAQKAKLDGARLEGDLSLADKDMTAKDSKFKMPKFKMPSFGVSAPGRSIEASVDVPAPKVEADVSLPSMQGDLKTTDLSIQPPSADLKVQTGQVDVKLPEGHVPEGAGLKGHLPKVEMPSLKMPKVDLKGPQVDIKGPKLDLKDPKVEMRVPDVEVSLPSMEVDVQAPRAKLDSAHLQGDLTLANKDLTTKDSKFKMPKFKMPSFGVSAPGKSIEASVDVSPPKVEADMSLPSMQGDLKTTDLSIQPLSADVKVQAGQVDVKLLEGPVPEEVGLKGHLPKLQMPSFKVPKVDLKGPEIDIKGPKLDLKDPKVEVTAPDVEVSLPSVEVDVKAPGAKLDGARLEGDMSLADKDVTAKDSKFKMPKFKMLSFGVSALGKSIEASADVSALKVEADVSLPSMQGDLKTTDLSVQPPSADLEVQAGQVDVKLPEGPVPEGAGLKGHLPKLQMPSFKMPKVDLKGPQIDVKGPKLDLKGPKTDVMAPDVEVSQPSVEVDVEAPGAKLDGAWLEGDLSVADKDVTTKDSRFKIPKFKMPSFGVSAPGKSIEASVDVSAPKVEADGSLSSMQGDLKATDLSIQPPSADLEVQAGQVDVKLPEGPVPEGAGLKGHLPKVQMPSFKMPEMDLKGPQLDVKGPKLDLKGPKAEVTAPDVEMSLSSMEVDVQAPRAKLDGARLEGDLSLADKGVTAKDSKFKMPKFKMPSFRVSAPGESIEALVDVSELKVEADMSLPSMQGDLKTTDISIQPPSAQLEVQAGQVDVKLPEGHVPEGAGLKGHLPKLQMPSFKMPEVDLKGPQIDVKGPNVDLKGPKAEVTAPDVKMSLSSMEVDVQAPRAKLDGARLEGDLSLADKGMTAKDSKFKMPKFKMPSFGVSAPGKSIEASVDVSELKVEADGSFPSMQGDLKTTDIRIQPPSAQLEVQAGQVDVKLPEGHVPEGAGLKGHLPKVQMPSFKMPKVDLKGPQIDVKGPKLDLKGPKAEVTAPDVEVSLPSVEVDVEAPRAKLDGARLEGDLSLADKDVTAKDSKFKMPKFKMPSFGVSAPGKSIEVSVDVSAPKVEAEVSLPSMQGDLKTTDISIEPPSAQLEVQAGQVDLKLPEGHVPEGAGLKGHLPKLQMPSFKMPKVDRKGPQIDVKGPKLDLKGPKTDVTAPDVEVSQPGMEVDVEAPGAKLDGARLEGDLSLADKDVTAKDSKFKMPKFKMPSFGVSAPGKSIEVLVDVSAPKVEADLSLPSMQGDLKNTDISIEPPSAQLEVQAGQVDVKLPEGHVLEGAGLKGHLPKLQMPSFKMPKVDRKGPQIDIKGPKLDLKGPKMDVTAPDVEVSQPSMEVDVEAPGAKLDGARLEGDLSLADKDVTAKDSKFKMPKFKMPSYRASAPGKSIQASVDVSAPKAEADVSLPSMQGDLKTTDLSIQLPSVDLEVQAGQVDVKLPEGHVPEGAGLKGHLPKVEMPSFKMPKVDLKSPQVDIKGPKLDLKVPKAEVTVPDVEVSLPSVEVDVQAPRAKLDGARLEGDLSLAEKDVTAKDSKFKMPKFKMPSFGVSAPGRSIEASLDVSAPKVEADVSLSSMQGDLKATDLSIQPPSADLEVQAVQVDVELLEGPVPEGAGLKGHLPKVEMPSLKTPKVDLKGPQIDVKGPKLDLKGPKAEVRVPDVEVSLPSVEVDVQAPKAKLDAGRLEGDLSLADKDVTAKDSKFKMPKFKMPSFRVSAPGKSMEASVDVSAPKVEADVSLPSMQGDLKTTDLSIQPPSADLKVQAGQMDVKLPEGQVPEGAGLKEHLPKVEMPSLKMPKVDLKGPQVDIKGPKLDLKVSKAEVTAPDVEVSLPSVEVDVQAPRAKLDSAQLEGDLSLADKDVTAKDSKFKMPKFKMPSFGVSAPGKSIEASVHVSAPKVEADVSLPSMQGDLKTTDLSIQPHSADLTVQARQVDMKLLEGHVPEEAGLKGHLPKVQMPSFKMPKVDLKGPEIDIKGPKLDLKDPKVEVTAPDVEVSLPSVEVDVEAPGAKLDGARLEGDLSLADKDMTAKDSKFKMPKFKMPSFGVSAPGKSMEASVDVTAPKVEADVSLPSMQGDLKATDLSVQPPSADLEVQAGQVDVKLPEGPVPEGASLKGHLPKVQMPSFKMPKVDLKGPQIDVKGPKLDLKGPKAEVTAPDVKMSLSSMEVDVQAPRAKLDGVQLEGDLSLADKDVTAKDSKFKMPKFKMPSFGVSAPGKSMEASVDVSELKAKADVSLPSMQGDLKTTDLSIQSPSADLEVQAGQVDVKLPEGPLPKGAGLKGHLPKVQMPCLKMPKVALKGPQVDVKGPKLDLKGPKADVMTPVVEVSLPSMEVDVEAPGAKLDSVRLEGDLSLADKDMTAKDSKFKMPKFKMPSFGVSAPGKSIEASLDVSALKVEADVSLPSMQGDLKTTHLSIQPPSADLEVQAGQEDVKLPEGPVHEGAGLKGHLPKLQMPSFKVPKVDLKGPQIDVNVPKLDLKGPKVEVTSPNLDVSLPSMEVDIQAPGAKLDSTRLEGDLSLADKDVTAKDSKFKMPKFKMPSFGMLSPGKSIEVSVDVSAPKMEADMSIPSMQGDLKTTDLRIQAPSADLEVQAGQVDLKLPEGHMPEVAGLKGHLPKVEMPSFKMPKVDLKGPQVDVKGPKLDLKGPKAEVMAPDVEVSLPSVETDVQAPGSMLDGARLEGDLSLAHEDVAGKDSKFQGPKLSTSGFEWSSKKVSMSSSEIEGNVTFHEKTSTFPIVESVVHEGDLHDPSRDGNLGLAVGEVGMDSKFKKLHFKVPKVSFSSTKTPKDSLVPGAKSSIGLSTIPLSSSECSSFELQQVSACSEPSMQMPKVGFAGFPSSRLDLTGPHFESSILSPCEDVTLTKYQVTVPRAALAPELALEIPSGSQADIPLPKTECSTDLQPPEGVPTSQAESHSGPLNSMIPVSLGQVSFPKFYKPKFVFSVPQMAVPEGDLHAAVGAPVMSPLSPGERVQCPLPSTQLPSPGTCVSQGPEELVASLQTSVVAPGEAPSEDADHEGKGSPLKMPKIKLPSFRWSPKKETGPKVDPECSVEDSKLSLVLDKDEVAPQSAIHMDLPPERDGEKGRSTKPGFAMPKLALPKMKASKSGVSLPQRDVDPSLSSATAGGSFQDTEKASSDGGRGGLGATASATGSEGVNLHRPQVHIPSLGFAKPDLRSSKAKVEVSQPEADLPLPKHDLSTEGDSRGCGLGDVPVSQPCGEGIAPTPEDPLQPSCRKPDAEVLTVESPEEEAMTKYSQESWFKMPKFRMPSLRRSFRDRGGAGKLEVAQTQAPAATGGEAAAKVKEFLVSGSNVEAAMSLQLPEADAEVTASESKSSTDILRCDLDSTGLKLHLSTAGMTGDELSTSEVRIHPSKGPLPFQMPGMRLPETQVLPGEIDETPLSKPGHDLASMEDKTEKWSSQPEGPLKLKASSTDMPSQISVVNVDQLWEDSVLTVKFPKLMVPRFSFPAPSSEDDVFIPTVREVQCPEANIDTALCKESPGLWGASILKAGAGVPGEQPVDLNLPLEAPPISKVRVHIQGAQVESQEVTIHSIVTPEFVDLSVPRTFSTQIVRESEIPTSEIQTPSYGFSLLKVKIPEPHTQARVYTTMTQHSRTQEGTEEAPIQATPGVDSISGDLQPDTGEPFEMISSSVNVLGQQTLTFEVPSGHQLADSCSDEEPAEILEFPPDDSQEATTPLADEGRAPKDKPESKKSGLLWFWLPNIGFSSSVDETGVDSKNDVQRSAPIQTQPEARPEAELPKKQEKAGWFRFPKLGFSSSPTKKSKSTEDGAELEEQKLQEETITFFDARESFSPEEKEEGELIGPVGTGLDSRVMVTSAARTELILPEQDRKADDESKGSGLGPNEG
UniProt Q07812: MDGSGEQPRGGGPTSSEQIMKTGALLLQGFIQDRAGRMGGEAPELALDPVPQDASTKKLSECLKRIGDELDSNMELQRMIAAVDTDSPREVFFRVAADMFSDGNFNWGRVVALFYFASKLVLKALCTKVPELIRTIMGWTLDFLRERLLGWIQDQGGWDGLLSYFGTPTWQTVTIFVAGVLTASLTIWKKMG
UniProt O75367: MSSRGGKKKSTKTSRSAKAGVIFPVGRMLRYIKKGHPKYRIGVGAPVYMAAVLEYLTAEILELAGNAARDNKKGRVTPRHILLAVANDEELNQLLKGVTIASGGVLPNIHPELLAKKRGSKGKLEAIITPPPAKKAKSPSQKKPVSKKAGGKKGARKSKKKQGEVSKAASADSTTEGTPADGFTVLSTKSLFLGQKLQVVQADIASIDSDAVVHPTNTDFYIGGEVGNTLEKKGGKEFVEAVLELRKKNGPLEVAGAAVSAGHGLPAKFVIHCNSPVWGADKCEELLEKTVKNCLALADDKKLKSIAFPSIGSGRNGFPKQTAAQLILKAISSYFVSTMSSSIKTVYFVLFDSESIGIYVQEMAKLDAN

Molecular target: mBidWT–BirA* (mouse) (UniProt P70444)
Assay: proximity labelling; BioID in HeLa cells stably expressing BirA* baits; 50 µM biotin for 16 h with nocodazole (mitotic enrichment) or DMSO (unsynchronised); lysis in RIPA, streptavidin-affinity purification, label-free LC–MS/MS (Progenesis QI); enrichment against the paired venus-BirA* control; three independent experiments

PDZ and LIM domain protein 1 (from UniProt O00151 1-329)
binding: binds

Protein AHNAK2 (from UniProt Q8IVF2 1-5795)
binding: binds

Chromodomain-helicase-DNA-binding protein 3 (from UniProt Q12873 1-2000)
binding: binds

Bax (from UniProt Q07812 1-192)
binding: binds weakly

Histone H2A (from UniProt O75367 1-369)
binding: binds

Glucose-6-phosphate 1 dehydrogenase (from UniProt P11413 1-515)
binding: binds

Coronin (from UniProt Q9BR76 1-489)
binding: binds

Chromodomain-helicase-DNA-binding protein 5 (from UniProt Q8TDI0 1-1954)
binding: binds

E3 ubiquitin–protein ligase RBBP6 (from UniProt Q7Z6E9 1-1792)
binding: binds

Signal transducer and activator of transcription 1-alpha/beta (from UniProt P42224 1-750)
binding: binds

Protein SON (from UniProt P18583 1-2426)
binding: binds

B1: Nucleoporin 155 kDa (protein, UniProt O75694 1-1391)
chain: MPSSLLGAAMPASTSAAALQEALENAGRLIDRQLQEDRMYPDLSELLMVSAPNNPTVSGMSDMDYPLQGPGLLSVPNLPEISSIRRVPLPPELVEQFGHMQCNCMMGVFPPISRAWLTIDSDIFMWNYEDGGDLAYFDGLSETILAVGLVKPKAGIFQPHVRHLLVLATPVDIVILGLSYANLQTGSGVLNDSLSGGMQLLPDPLYSLPTDNTYLLTITSTDNGRIFLAGKDGCLYEVAYQAEAGWFSQRCRKINHSKSSLSFLVPSLLQFTFSEDDPILQIAIDNSRNILYTRSEKGVIQVYDLGQDGQGMSRVASVSQNAIVSAAGNIARTIDRSVFKPIVQIAVIENSESLDCQLLAVTHAGVRLYFSTCPFRQPLARPNTLTLVHVRLPPGFSASSTVEKPSKVHRALYSKGILLMAASENEDNDILWCVNHDTFPFQKPMMETQMTAGVDGHSWALSAIDELKVDKIITPLNKDHIPITDSPVVVQQHMLPPKKFVLLSAQGSLMFHKLRPVDQLRHLLVSNVGGDGEEIERFFKLHQEDQACATCLILACSTAACDREVSAWATRAFFRYGGEAQMRFPTTLPPPSNVGPILGSPVYSSSPVPSGSPYPNPSFLGTPSHGIQPPAMSTPVCALGNPATQATNMSCVTGPEIVYSGKHNGICIYFSRIMGNIWDASLVVERIFKSGNREITAIESSVPCQLLESVLQELKGLQEFLDRNSQFAGGPLGNPNTTAKVQQRLIGFMRPENGNPQQMQQELQRKFHEAQLSEKISLQAIQQLVRKSYQALALWKLLCEHQFTIIVAELQKELQEQLKITTFKDLVIRDKELTGALIASLINCYIRDNAAVDGISLHLQDICPLLYSTDDAICSKANELLQRSRQVQNKTEKERMLRESLKEYQKISNQVDLSNVCAQYRQVRFYEGVVELSLTAAEKKDPQGLGLHFYKHGEPEEDIVGLQAFQERLNSYKCITDTLQELVNQSKAAPQSPSVPKKPGPPVLSSDPNMLSNEEAGHHFEQMLKLSQRSKDELFSIALYNWLIQVDLADKLLQVASPFLEPHLVRMAKVDQNRVRYMDLLWRYYEKNRSFSNAARVLSRLADMHSTEISLQQRLEYIARAILSAKSSTAISSIAADGEFLHELEEKMEVARIQLQIQETLQRQYSHHSSVQDAVSQLDSELMDITKLYGEFADPFKLAECKLAIIHCAGYSDPILVQTLWQDIIEKELSDSVTLSSSDRMHALSLKIVLLGKIYAGTPRFFPLDFIVQFLEQQVCTLNWDVGFVIQTMNEIGVPLPRLLEVYDQLFKSRDPFWNRMKKPLHLLDCIHVLLIRYVENPSQVLNCERRRFTNLCLDAVCGYLVELQSMSSSVAVQAITGNFKSLQAKLERLH
binding: binds

B2: Adaptor-related protein complex 3 beta- 1 subunit isoform 1 (protein, UniProt O00203 1-1094)
chain: MSSNSFPYNEQSGGGEATELGQEATSTISPSGAFGLFSSDLKKNEDLKQMLESNKDSAKLDAMKRIVGMIAKGKNASELFPAVVKNVASKNIEIKKLVYVYLVRYAEEQQDLALLSISTFQRALKDPNQLIRASALRVLSSIRVPIIVPIMMLAIKEASADLSPYVRKNAAHAIQKLYSLDPEQKEMLIEVIEKLLKDKSTLVAGSVVMAFEEVCPDRIDLIHKNYRKLCNLLVDVEEWGQVVIIHMLTRYARTQFVSPWKEGDELEDNGKNFYESDDDQKEKTDKKKKPYTMDPDHRLLIRNTKPLLQSRNAAVVMAVAQLYWHISPKSEAGIISKSLVRLLRSNREVQYIVLQNIATMSIQRKGMFEPYLKSFYVRSTDPTMIKTLKLEILTNLANEANISTLLREFQTYVKSQDKQFAAATIQTIGRCATNILEVTDTCLNGLVCLLSNRDEIVVAESVVVIKKLLQMQPAQHGEIIKHMAKLLDSITVPVARASILWLIGENCERVPKIAPDVLRKMAKSFTSEDDLVKLQILNLGAKLYLTNSKQTKLLTQYILNLGKYDQNYDIRDRTRFIRQLIVPNVKSGALSKYAKKIFLAQKPAPLLESPFKDRDHFQLGTLSHTLNIKATGYLELSNWPEVAPDPSVRNVEVIELAKEWTPAGKAKQENSAKKFYSESEEEEDSSDSSSDSESESGSESGEQGESGEEGDSNEDSSEDSSSEQDSESGRESGLENKRTAKRNSKAKGKSDSEDGEKENEKSKTSDSSNDESSSIEDSSSDSESESEPESESESRRVTKEKEKKTKQDRTPLTKDVSLLDLDDFNPVSTPVALPTPALSPSLMADLEGLHLSTSSSVISVSTPAFVPTKTHVLLHRMSGKGLAAHYFFPRQPCIFGDKMVSIQITLNNTTDRKIENIHIGEKKLPIGMKMHVFNPIDSLEPEGSITVSMGIDFCDSTQTASFQLCTKDDCFNVNIQPPVGELLLPVAMSEKDFKKEQGVLTGMNETSAVIIAAPQNFTPSVIFQKVVNVANVGAVPSGQDNIHRFAAKTVHSGSLMLVTVELKEGSTAQLIINTEKTVIGSVLLRELKPVLSQG
binding: binds

B3: BRCA1-associated protein (protein, UniProt Q7Z569 1-592)
chain: MSVSLVVIRLELAEHSPVPAGFGFSAAAGEMSDEEIKKTTLASAVACLEGKSPGEKVAIIHQHLGRREMTDVIIETMKSNPDELKTTVEERKSSEASPTAQRSKDHSKECINAAPDSPSKQLPDQISFFSGNPSVEIVHGIMHLYKTNKMTSLKEDVRRSAMLCILTVPAAMTSHDLMKFVAPFNEVIEQMKIIRDSTPNQYMVLIKFRAQADADSFYMTCNGRQFNSIEDDVCQLVYVERAEVLKSEDGASLPVMDLTELPKCTVCLERMDESVNGILTTLCNHSFHSQCLQRWDDTTCPVCRYCQTPEPVEENKCFECGVQENLWICLICGHIGCGRYVSRHAYKHFEETQHTYAMQLTNHRVWDYAGDNYVHRLVASKTDGKIVQYECEGDTCQEEKIDALQLEYSYLLTSQLESQRIYWENKIVRIEKDTAEEINNMKTKFKETIEKCDNLEHKLNDLLKEKQSVERKCTQLNTKVAKLTNELKEEQEMNKCLRANQVLLQNKLKEEERVLKETCDQKDLQITEIQEQLRDVMFYLETQQKINHLPAETRQEIQEGQINIAMASASSPASSGGSGKLPSRKGRSKRGK
binding: binds

B4: ATP-binding cassette subfamily D member 3 (protein, UniProt P28288 1-659)
chain: MAAFSKYLTARNSSLAGAAFLLLCLLHKRRRALGLHGKKSGKPPLQNNEKEGKKERAVVDKVFFSRLIQILKIMVPRTFCKETGYLVLIAVMLVSRTYCDVWMIQNGTLIESGIIGRSRKDFKRYLLNFIAAMPLISLVNNFLKYGLNELKLCFRVRLTKYLYEEYLQAFTYYKMGNLDNRIANPDQLLTQDVEKFCNSVVDLYSNLSKPFLDIVLYIFKLTSAIGAQGPASMMAYLVVSGLFLTRLRRPIGKMTITEQKYEGEYRYVNSRLITNSEEIAFYNGNKREKQTVHSVFRKLVEHLHNFILFRFSMGFIDSIIAKYLATVVGYLVVSRPFLDLSHPRHLKSTHSELLEDYYQSGRMLLRMSQALGRIVLAGREMTRLAGFTARITELMQVLKDLNHGKYERTMVSQQEKGIEGVQVIPLIPGAGEIIIADNIIKFDHVPLATPNGDVLIRDLNFEVRSGANVLICGPNGCGKSSLFRVLGELWPLFGGRLTKPERGKLFYVPQRPYMTLGTLRDQVIYPDGREDQKRKGISDLVLKEYLDNVQLGHILEREGGWDSVQDWMDVLSGGEKQRMAMARLFYHKPQFAILDECTSAVSVDVEGYIYSHCRKVGITLFTVSHRKSLWKHHEYYLHMDGRGNYEFKQITEDTVEFGS
binding: binds

B5: Macrophage-capping protein (protein, UniProt P40121 1-348)
chain: MYTAIPQSGSPFPGSVQDPGLHVWRVEKLKPVPVAQENQGVFFSGDSYLVLHNGPEEVSHLHLWIGQQSSRDEQGACAVLAVHLNTLLGERPVQHREVQGNESDLFMSYFPRGLKYQEGGVESAFHKTSTGAPAAIKKLYQVKGKKNIRATERALNWDSFNTGDCFILDLGQNIFAWCGGKSNILERNKARDLALAIRDSERQGKAQVEIVTDGEEPAEMIQVLGPKPALKEGNPEEDLTADKANAQAAALYKVSDATGQMNLTKVADSSPFALELLISDDCFVLDNGLCGKIYIWKGRKANEKERQAALQVAEGFISRMQYAPNTQVEILPQGHESPIFKQFFKDWK
binding: binds

B6: ATP-binding cassette subfamily F member 3 isoform 1 (protein, UniProt Q9NUQ8 1-709)
chain: MATCAEILRSEFPEIDGQVFDYVTGVLHSGSADFESVDDLVEAVGELLQEVSGDSKDDAGIRAVCQRMYNTLRLAEPQSQGNSQVLLDAPIQLSKITENYDCGTKLPGLLKREQSSTVNAKKLEKAEARLKAKQEKRSEKDTLKTSNPLVLEEASASQAGSRKESRLESSGKNKSYDVRIENFDVSFGDRVLLAGADVNLAWGRRYGLVGRNGLGKTTLLKMLATRSLRVPAHISLLHVEQEVAGDDTPALQSVLESDSVREDLLRRERELTAQIAAGRAEGSEAAELAEIYAKLEEIEADKAPARASVILAGLGFTPKMQQQPTREFSGGWRMRLALARALFARPDLLLLDEPTNMLDVRAILWLENYLQTWPSTILVVSHDRNFLNAIATDIIHLHSQRLDGYRGDFETFIKSKQERLLNQQREYEAQQQYRQHIQVFIDRFRYNANRASQVQSKLKMLEKLPELKPVDKESEVVMKFPDGFEKFSPPILQLDEVDFYYDPKHVIFSRLSVSADLESRICVVGENGAGKSTMLKLLLGDLAPVRGIRHAHRNLKIGYFSQHHVEQLDLNVSAVELLARKFPGRPEEEYRHQLGRYGISGELAMRPLASLSGGQKSRVAFAQMTMPCPNFYILDEPTNHLDMETIEALGRALNNFRGGVILVSHDERFIRLVCRELWVCEGGGVTRVEGGFDQYRALLQEQFRREGFL
binding: binds

B7: Mitochondrial 2-oxoglutarate/malate carrier protein (protein, UniProt Q02978 1-314)
chain: MAATASAGAGGIDGKPRTSPKSVKFLFGGLAGMGATVFVQPLDLVKNRMQLSGEGAKTREYKTSFHALTSILKAEGLRGIYTGLSAGLLRQATYTTTRLGIYTVLFERLTGADGTPPGFLLKAVIGMTAGATGAFVGTPAEVALIRMTADGRLPADQRRGYKNVFNALIRITREEGVLTLWRGCIPTMARAVVVNAAQLASYSQSKQFLLDSGYFSDNILCHFCASMISGLVTTAASMPVDIAKTRIQNMRMIDGKPEYKNGLDVLFKVVRYEGFFSLWKGFTPYYARLGPHTVLTFIFLEQMNKAYKRLFLSG
binding: binds
